Values of other authors, collected in patent US20030039708A1, “NON-MA HUANG HERB WEIGHT LOSS PRODUCT” (priority 2001, published 2003).
For at least one compound, name, drawing or mass did not settle the structure.

Experiments:
[1] = 25 mg of forskolin twice a day
[2] = tested on: thyroid-stimulating hormone (TSH)

## C=C[C@@]1(C)CC(=O)[C@]2(O)[C@@]3(C)[C@@H](O)CCC(C)(C)[C@@H]3[C@H](O)[C@H](OC(C)=O)[C@@]2(C)O1 [forskolin]
[1]
  lean body mass: increasing
  weight from body fat: decreasing
[2]
  mimicry of thyroid-stimulating hormone (TSH): fully mimic
